Measurements reported in PubChem BioAssay AID504784 (Drosophila RNAi Screening Center, 2011).
The screen tested about 17,000 reagents; below is an unselected part of those that have a named target and a result. 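Each column is one replicate's B-score; the combined score over replicates was not deposited, so single values may mislead.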 A plus sign joins genes that one reagent is predicted to hit. Further read-outs or replicates are left out here.

Test: 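Genome-wide knock-down for genes giving too much or too little stored lipid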 (primary screen)
Cell system: Drosophila Kc167 embryonic cells
Reagent: long dsRNA against Drosophila genes, about 250 ng dsRNA per well
Timing: 4 days
Challenge: cells fed 400 µM oleic acid bound to BSA
Measurement: 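Cells imaged and segmented; ratio of lipid droplet area to nuclear area, log-transformed, then normalised as a B-score over the screen; higher means more stored lipid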
Direction: droplet/nuclear area B-score: higher = more stored lipid (overstorage)

| gene | dsRNA | droplet/nuclear area B-score, replicate 1 |
| --- | --- | --- |
| FBXO11 | DRSC16497 | 0.204 |
| CaMKII | DRSC17214 | -0.323 |
| CG12320 | DRSC14498 | 1.16 |
| mxt | DRSC00551 | 0.75 |
| CG15142 | DRSC02443 | 0.669 |
| Agxt | DRSC18718 | 0.0461 |
| CG14668 | DRSC12254 | 0.256 |
| CG14451 | DRSC11708 | 1.26 |
| CG15539 | DRSC15075 | 0.553 |
| nkd | DRSC11376 | -0.977 |
| CG11041 | DRSC06025 | -0.749 |
| icln | DRSC07630 | -0.438 |
| CG32079 | DRSC22636 | -1.35 |
| Elo68alpha | DRSC22725 | 0.0253 |
| mad2 | DRSC10274 | 0.197 |
| alien + CG17906 | DRSC02641 | -0.558 |
| CG11300 | DRSC04104 | -0.846 |
| Pi3K59F | DRSC04640 | -0.242 |
| CG4927 | DRSC06903 | 0.686 |
| Jabba | DRSC06521 | -0.14 |
| CG32199 | DRSC09990 | 0.466 |
| Gnpat | DRSC16960 | -0.00463 |
| Jon99Fii + Jon99Cii + Jon99Ciii + 1 more | DRSC15298 | -2.6 |
| cyp33 + CG34194 | DRSC05666 | -1.57 |
| tweek | DRSC02433 | 2.63 |
| tweek | DRSC02434 | -0.525 |
| tweek | DRSC02785 | -2.49 |
| tweek | DRSC23133 | -2.29 |
| CG11050 | DRSC02125 | -4.05 |
| D19B | DRSC11134 | -0.385 |
| CG10195 | DRSC02026 | 0.713 |
| ImpE2 | DRSC08665 | -0.353 |
| CG2691 | DRSC19866 | 0.0636 |
| CG14107 | DRSC10110 | 3.08 |

Reformatted: entries from further up
{"gene": "Gnpat", "dsRNA": "DRSC16960", "droplet/nuclear area B-score, replicate 1": -0.00463}
{"gene": "Jon99Fii + Jon99Cii + Jon99Ciii + 1 more", "dsRNA": "DRSC15298", "droplet/nuclear area B-score, replicate 1": -2.6}
{"gene": "cyp33 + CG34194", "dsRNA": "DRSC05666", "droplet/nuclear area B-score, replicate 1": -1.57}
{"gene": "tweek", "dsRNA": "DRSC02433", "droplet/nuclear area B-score, replicate 1": 2.63}
{"gene": "tweek", "dsRNA": "DRSC02434", "droplet/nuclear area B-score, replicate 1": -0.525}
{"gene": "tweek", "dsRNA": "DRSC02785", "droplet/nuclear area B-score, replicate 1": -2.49}
{"gene": "tweek", "dsRNA": "DRSC23133", "droplet/nuclear area B-score, replicate 1": -2.29}

Continued.
| gene | dsRNA | droplet/nuclear area B-score, replicate 1 |
| --- | --- | --- |
| CG7173 | DRSC11812 | 0.997 |
| CG7173 | DRSC23252 | -0.729 |
| trsn | DRSC06078 | -0.118 |
| CG32073 | DRSC09087 | 0.146 |
| CG32073 | DRSC09894 | -2.41 |
| Bicra | DRSC14417 | -2.48 |
| CG11313 | DRSC14295 | 0.173 |
| CG9628 | DRSC11082 | -0.097 |
| CG17049 (retired record) | DRSC06650 | 0.0536 |
| Mic26-27 | DRSC15913 | 0.792 |
| Ge-1 | DRSC02938 | -1.81 |
| p38c | DRSC22939 | 1.28 |
| CG14826 | DRSC10197 | -1.66 |
| galectin | DRSC00305 | -1 |
| Atf-2 | DRSC04130 | -3.03 |
| Atf-2 | DRSC04413 | 0.372 |
| CG17571 | DRSC01768 | 1.04 |
| CG17571 | DRSC03755 | -0.487 |
| ApepP | DRSC01866 | 0.52 |
| CG17633 | DRSC02631 | -0.244 |
| CG3301 | DRSC15471 | 0.0506 |
| CG18294 | DRSC09891 | 0.043 |
